# Reference: PubChem BioAssay AID1259415 (National Center for Advancing Translational Sciences (NCATS), 2018)
# The whole screen tested about 410,000 compounds, of which about 18,000 (4.4%) were called active. The inconclusive results got no clear call from the source; some entries with a clear call stand among them for comparison. Rule as the data show it: active = activity change below about -60%; inconclusive = no clear call, values can overlap the other calls; inactive = above about -39%. The source holds several records for some structures; these can differ, active in one and inactive in another.
# Assay: qHTS Assay for inhibitors of the human cytomegalovirus (HCMV)
# Settings: HFF cells, HCMV-luciferase reporter, 72 h; at 57.5 µM; active compounds read low
# Method in brief: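 Compounds were evaluated in HFFs infected with an HCMV luciferase reporter virus (MOI 1 PFU/cell). Luciferase in lysates collected 72 h post infection served as the replication measure.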
# % is scaled to controls: 0 for no effect and ±100 for the full control effect.
row,SMILES,"activity change, negative = inhibition"
1,CCOC(=O)c1[nH]c2ccccc2c1NC(=O)c1ccc(OC(C)C)cc1,inactive: 29.1%
2,Cc1ccc(NC(=S)NCCN(C2CCCCC2)C2CCCC2)cc1,inconclusive: -52.9%
3,CC[C@]12c3[nH]c4ccc(Cl)cc4c3CCN1C(=O)[C@@H](CC(=O)NCCC1=CCCCC1)C[C@@H]2C(=O)N1CCN(C(=O)c2ccco2)CC1,inconclusive: -53.5%
4,CC(C)/C=C1\CC/C(=C\c2ccc(N(C)C)cc2)C1=O,inactive: 78.1%
5,O=C(NCc1ccc(F)cc1)C1CCN(S(=O)(=O)c2ccc(Cl)cc2)CC1,inactive: -25.9%
6,O=C(CN1C(=O)CCSc2ccc(S(=O)(=O)N3CCCC3)cc21)NCc1ccccc1Cl,inactive: -38.4%
7,COCCN(C(=O)CSc1nc2nc(C)cc(C)n2n1)c1c(N)n(Cc2ccccc2)c(=O)[nH]c1=O,inactive: 8.22%
8,CCOC(=O)C1(Cc2ccc(Cl)cc2)CCN(CCCn2cccn2)CC1,active: -61.8%
9,COC(=O)c1ccc(CSc2n[nH]c(-c3ccccc3)n2)o1,inconclusive: -54.3%
10,COCCCNC(=O)CCCn1c(=O)c2cccn2c2cccnc21,inconclusive: -40.5%
11,CC(C)(C)c1ccc(-c2noc(CCC(=O)Nc3cccnc3)n2)cc1,active: -74.8%
12,COc1ccc(Nc2cc(C)nc(NCc3ccccc3)n2)cc1,inconclusive: -46.5%
13,C#CCN1C=CC(=O)[C@@H](OC(=O)Nc2ccccc2Br)[C@H]1c1ccccc1Br,inconclusive: -50.1%
14,CC(C)OC(=O)Cn1nc(C(F)(F)F)c2c1CCCC2,inconclusive: -48.9%
15,COc1ccc(-c2nc(SC(CC(=O)NCc3ccccc3)c3ccc(OC)c(OC)c3)n[nH]2)cc1 (stereo unspecified),inconclusive: -46.8%
16,O=C(Cc1nc(-c2ccc([N+](=O)[O-])cc2)cs1)Nc1ccccc1,active: -91.9%
17,NC(=S)N/N=C/c1ccc(Br)o1,inconclusive: -40.7%
18,COc1ccc(N/C(N)=N/c2nc(CSc3nnc(C)s3)cc(=O)[nH]2)cc1,inactive: -22.3%
19,Cc1ccccc1NC(=O)c1sc2nc(-c3ccncc3)ccc2c1N,inconclusive: -56.5%

# Some of the entries so far, as tab-separated lines:
row	SMILES	activity change, negative = inhibition
1	CCOC(=O)c1[nH]c2ccccc2c1NC(=O)c1ccc(OC(C)C)cc1	inactive: 29.1%
4	CC(C)/C=C1\CC/C(=C\c2ccc(N(C)C)cc2)C1=O	inactive: 78.1%
5	O=C(NCc1ccc(F)cc1)C1CCN(S(=O)(=O)c2ccc(Cl)cc2)CC1	inactive: -25.9%
6	O=C(CN1C(=O)CCSc2ccc(S(=O)(=O)N3CCCC3)cc21)NCc1ccccc1Cl	inactive: -38.4%
7	COCCN(C(=O)CSc1nc2nc(C)cc(C)n2n1)c1c(N)n(Cc2ccccc2)c(=O)[nH]c1=O	inactive: 8.22%
8	CCOC(=O)C1(Cc2ccc(Cl)cc2)CCN(CCCn2cccn2)CC1	active: -61.8%
9	COC(=O)c1ccc(CSc2n[nH]c(-c3ccccc3)n2)o1	inconclusive: -54.3%
10	COCCCNC(=O)CCCn1c(=O)c2cccn2c2cccnc21	inconclusive: -40.5%
11	CC(C)(C)c1ccc(-c2noc(CCC(=O)Nc3cccnc3)n2)cc1	active: -74.8%
12	COc1ccc(Nc2cc(C)nc(NCc3ccccc3)n2)cc1	inconclusive: -46.5%
13	C#CCN1C=CC(=O)[C@@H](OC(=O)Nc2ccccc2Br)[C@H]1c1ccccc1Br	inconclusive: -50.1%
14	CC(C)OC(=O)Cn1nc(C(F)(F)F)c2c1CCCC2	inconclusive: -48.9%
15	COc1ccc(-c2nc(SC(CC(=O)NCc3ccccc3)c3ccc(OC)c(OC)c3)n[nH]2)cc1 (stereo unspecified)	inconclusive: -46.8%
16	O=C(Cc1nc(-c2ccc([N+](=O)[O-])cc2)cs1)Nc1ccccc1	active: -91.9%
17	NC(=S)N/N=C/c1ccc(Br)o1	inconclusive: -40.7%
19	Cc1ccccc1NC(=O)c1sc2nc(-c3ccncc3)ccc2c1N	inconclusive: -56.5%

# More structures follow:

row,SMILES,"activity change, negative = inhibition"
1,O=c1c2sc(-c3ccccc3)cc2nc2n1CCCCC2,inconclusive: -41.3%
2,Cc1cccc(C(C)C)c1NC(=O)CN1C(=O)NC2(CCc3ccccc32)C1=O (stereo unspecified),inactive: -1.62%
3,COc1ccc(COC(=O)C2=C(C)NC(=O)NC2c2ccc(F)cc2)cc1 (stereo unspecified),active: -75.2%
4,NCC1CCC(C(=O)Oc2ccc(CCC(=O)O)cc2)CC1 (stereo unspecified),inconclusive: -49.7%
5,O=C(NCC1CCCCC1)c1ccc(Br)o1,inconclusive: -54.9%
6,CC(O)(c1cccnc1)c1nc(-c2ccc3ccccc3c2)cs1 (stereo unspecified),inconclusive: -48.8%
7,Nc1ccc(C(=O)OCC(=O)Nc2ccc3c(c2)OCO3)cc1[N+](=O)[O-],inactive: 10.3%
8,CC1CCN(C(=O)CCCOc2ccc(Cl)cc2)CC1,inconclusive: -52.8%
9,O=C(CCN1C(=O)/C(=C/c2ccc(F)cc2)SC1=S)NC1CCS(=O)(=O)C1 (stereo unspecified),inconclusive: -42%
10,CN(Cc1ccccc1F)C(=O)c1ccc(NC(=O)CC2SC(N3CCCCC3)=NC2=O)cc1 (stereo unspecified),inconclusive: -56.5%
11,Cn1cnnc1SCC(=O)Nc1ncc(C(F)(F)F)cc1Cl,inconclusive: -41.7%
12,CCN(Cc1ccccc1)C(=O)CCNS(=O)(=O)c1ccc2c(c1)CC(C)N2C(C)=O (stereo unspecified),active: -71.8%
13,CSc1nnc(-c2cccc(NC(=S)NN)c2)o1,active: -66%
14,CC(=O)N1c2ccc(S(=O)(=O)N3CCC(C(=O)NCc4ccc(Cl)cc4)CC3)cc2CC1C (stereo unspecified),inconclusive: -47.9%
15,O=C(Nc1ccccc1)c1nc[nH]c1C(=O)N1CCN(c2ccccc2)CC1,inconclusive: -47.5%
16,CCC(NC(=O)CCl)c1ccc(C)cc1 (stereo unspecified),active: -78.1%
17,Cc1ccc(S(=O)(=O)N(C)C)cc1NC(=O)C(C)OC(=O)C1CCCCC1 (stereo unspecified),inconclusive: -45%
18,O=C(CN(c1cccc(Br)c1)S(=O)(=O)c1ccccc1)N1CCc2ccccc2C1,inactive: -5.92%
19,COc1ccc(CC(=O)NCc2ccc(-n3cccc3)cc2)cc1OC,inconclusive: -40.3%

row,SMILES,"activity change, negative = inhibition"
1,C=C(C)Cc1c(C)nc(-c2ccccc2)[nH]c1=O,inactive: 22.9%
2,Cc1nnc(N2CCN(c3ccccc3F)CC2)c2c1nnn2Cc1ccc(F)cc1,inactive: 5.12%
3,CC(C)C(=O)Nc1ccc(N2CCCC2)cc1,inconclusive: -47.2%
4,CCOc1ccc(N=C2NC(=O)/C(=C/C(=O)OC)S2)cc1,inconclusive: -40.3%
5,O=C(N/N=C/c1cn(-c2ccccc2)nc1-c1ccc(F)cc1)c1ccc2c(c1)OCO2,inactive: 0.989%
6,O=C(Nc1cc(Cl)cc(Cl)c1)c1cccc(OC(F)F)c1,active: -74.7%
7,CC(N)C(=O)NC1C2C(=C(O)CC(O)C2O)C(=O)OC1(C)C(Cl)Cl (stereo unspecified),active: -75.8%
8,CN(C(=O)c1nn(C)c2c1COc1ccccc1-2)c1cccc(C(F)(F)F)c1,inactive: -32%
9,COc1ccc(/C=C2\CCCCC2=O)cc1,inactive: 57.7%
10,COc1ccc(NC(=O)CSc2ccccc2)cc1S(=O)(=O)N1CCCCC1,inconclusive: -46.8%
11,Cc1[nH]nc2c1C(c1cc(Br)cs1)C(C#N)=C(N)O2 (stereo unspecified),active: -98.4%
12,COc1ccc(/C=C2\C(=O)OCc3cc(OC)c(OC)cc32)cc1OC,inactive: 37%
13,CC12CCC(C(=O)Nc3ccccc3)(C(Br)C1=O)C2(C)C (stereo unspecified),inconclusive: -43.7%
14,COc1ccc(-n2ncc(C(=O)N3CCN(c4ccccn4)CC3)c2C2CCN(C(=O)OC(C)(C)C)CC2)cc1,inconclusive: 0%
15,CCC(CC)c1nn2c(=O)cc(COc3ccc(NC(=O)c4ccc(Cl)cc4)cc3)nc2s1,inactive: 5.66%
16,COc1cccc2c(=O)cc(C)n(CC(=O)Nc3ccccc3C)c12,inconclusive: -41.7%
17,O=C(CN1CCCc2ccccc21)N/N=C/c1c(O)ccc2ccccc12,active: -98.3%
18,CCCn1nc(C(=O)Nc2ccc3nc(N4CCOCC4)sc3c2)ccc1=O,active: -76.2%
